Patent publication US20210236668A1, “COMPOSITIONS FOR RADIOTHERAPY AND USES THEREOF” (The Trustees of Columbia University in the City of New York, priority 2018, published 2021)

Experiments:
[1] = Avidin saturation of talc and release on washing, Pierce 660 nm total protein assay of supernatants; assay type: binding; conditions: for Saturation of AVIDIN to the combine surface of 100 mg talc / AVIDIN in supernatant after incubation / Avidin binded to talc / Amount of Avidin removed by wash: Ex 3; for Avidin binded with talc / Avidin in supernatant / Avidin per talc surface: Ex 4
[2] = HRP Avidin (hot) / cold Avidin binding to talc in 96 well plate, TMB absorbance 450 nm; conditions: Ex 12
porcine bladder mucosa = experiment: Attachment of HRP-labeled avidin / HRP-labeled Biotin / Indium-111-DOTA-biotin to bladder mucosa, microtitre plate bladder platform; parameters: species or system pig
[3] = Biotin Rhodamine binding to talc after washing with buffers of different pH, fluorescent assay 496 nm/520 nm
[4] = 100 mg talc, 198.4 μg Avidin in reaction
[5] = 100 mg talc, 1650.3 μg Avidin in reaction
[6] = 100 mg talc, Avidin added 330 μg/ml
[7] = 100 mg talc, Avidin added 3300 μg/ml
[8] = 100 mg talc, Avidin added 6600 μg/ml
[9] = 100 mg talc, Avidin added 19800 μg/ml

Avidin: Avidin from egg white (Sigma A9275), 66 kDa biotin-binding protein; unlabeled = cold Avidin
Saturation of AVIDIN to the combine surface of 100 mg talc ([1]; 198.4 μg Avidin added): 2.48 μg/cm^2 | Saturation of AVIDIN to the combine surface of 100 mg talc ([1]; 1650.3 μg Avidin added): 6.25 μg/cm^2 | AVIDIN in supernatant after incubation [1, 4]: 13.7 μg/0.5 ml | Avidin binded to talc [1, 4]: 184.7 µg | AVIDIN in supernatant after incubation ([1]; 100 mg talc, 198.4 μg Avidin in reaction (0.5 ml)): 27.4 µg/mL | AVIDIN in supernatant after incubation [1, 5]: 1185 μg/0.5 ml | Avidin binded to talc [1, 5]: 465.3 µg | AVIDIN in supernatant after incubation ([1]; 100 mg talc, 1650.3 μg Avidin in reaction (0.5 ml)): 2370 µg/mL | Amount of Avidin removed by wash ([1]; 1st wash with EDTA, 198.4 μg Avidin): 15.8 µg/mL | Amount of Avidin removed by wash ([1]; 1st wash with EDTA, 1650.3 μg Avidin): 13.2 µg/mL | Amount of Avidin removed by wash ([1]; 1st wash with PBS, 198.4 μg Avidin, 100 mg talc): 31.4 µg/mL | Amount of Avidin removed by wash ([1]; 1st wash with PBS, 1650.3 μg Avidin, 100 mg talc): 307.4 µg/mL | Amount of Avidin removed by wash ([1]; 2nd wash with EDTA, 198.4 μg Avidin): 19.8 µg/mL | Amount of Avidin removed by wash ([1]; 2nd wash with EDTA, 1650.3 μg Avidin): 12.3 µg/mL | Amount of Avidin removed by wash ([1]; 2nd wash with PBS, 198.4 μg Avidin): 27.6 µg/mL | Amount of Avidin removed by wash ([1]; 2nd wash with PBS, 1650.3 μg Avidin): 67.3 µg/mL | Amount of Avidin removed by wash ([1]; 3rd wash with EDTA, 198.4 μg Avidin): 13 µg/mL | Amount of Avidin removed by wash ([1]; 3rd wash with EDTA, 1650.3 μg Avidin): 13.2 µg/mL | Amount of Avidin removed by wash ([1]; 3rd wash with PBS, 198.4 μg Avidin): 32.7 µg/mL | Amount of Avidin removed by wash ([1]; 3rd wash with PBS, 1650.3 μg Avidin): 40.3 µg/mL | Avidin binded with talc [1, 6]: 110.4 µg/mL | Avidin in supernatant [1, 6]: 219.6 μg, ml | Avidin per talc surface [1, 6]: 1.5 μg/cm2 | Avidin binded with talc [1, 7]: 2452.7 µg/mL | Avidin in supernatant [1, 7]: 847.3 μg, ml | Avidin per talc surface [1, 7]: 33.0 μg/cm2 and 33 μg/cm2 | Avidin binded with talc [1, 8]: 4631.5 µg/mL | Avidin in supernatant [1, 8]: 1968.5 μg, ml | Avidin per talc surface [1, 8]: 62.3 μg/cm2 | Avidin binded with talc [1, 9]: 12166.7 µg/mL | Avidin in supernatant [1, 9]: 7633.3 μg, ml | Avidin per talc surface [1, 9]: 163.5 μg/cm2 | Avidin binded with talc ([1]; 100 mg talc, Avidin added […]): 7952.7 µg/mL | Avidin in supernatant ([1]; 100 mg talc, Avidin added […]): 5247.3 μg, ml | Avidin per talc surface ([1]; 100 mg talc, Avidin added […]): 106.9 μg/cm2 | Efficiency of binding to talc ([2]; 1 mg talc, Cold Avidin only 100 ug/mL): 0.31 OD | Efficiency of binding to talc ([2]; 1 mg talc, Cold Avidin only 200 ug/mL): 0.27 OD | Efficiency of binding to talc ([2]; 1 mg talc, Cold Avidin only 400 ug/mL): 0.3 OD | Efficiency of binding to talc ([2]; 1 mg talc, Cold Avidin only 4 mg/mL): 0.33 OD | Efficiency of binding to talc ([2]; 5 mg talc, Cold Avidin only 100 ug/mL): 1.38 OD | Efficiency of binding to talc ([2]; 5 mg talc, Cold Avidin only 200 ug/mL): 1.4 OD | Efficiency of binding to talc ([2]; 5 mg talc, Cold Avidin only 400 ug/mL): 1.01 OD | Efficiency of binding to talc ([2]; 5 mg talc, Cold Avidin only 4 mg/mL): 1.23 OD | binding to porcine bladder mucosa (porcine bladder mucosa): bind tightly | pH at which binding to porcine bladder mucosa is best (porcine bladder mucosa; protein free saline): ≤ 8.0

Biotin Rhodamine 110
effect of pH of washing buffers on binding to talc ([3]; pH 4.8-8.0): pH does not affect the binding | Average fluorescent signal (RHODAMINE 110) ([3]; talc/Biotin washed with Citrate buffer, pH 4.8): 14027.61 | Average fluorescent signal (RHODAMINE 110) ([3]; talc/Biotin washed with PBS): 13760.41 | Average fluorescent signal (RHODAMINE 110) ([3]; talc/Biotin washed with TBS, pH 8.0): 12868.68

Values joined by “and” are separate entries in the source; they are usually repeats but may differ in a detail not shown here. Identical values can stand only once.
